These are yes or no findings as the source states them, for the method shown. Binding seen in cells or lysates may run through a third protein. Some entries that bind do so weakly or less than the wild type. Tags and fused reporters may be left off the sequences shown.
Biological target: T1, FLAG-tagged variant of ArgD (acetylornithine aminotransferase) (Synechocystis sp. PCC 6803) (UniProt P73133)
T1 sequence: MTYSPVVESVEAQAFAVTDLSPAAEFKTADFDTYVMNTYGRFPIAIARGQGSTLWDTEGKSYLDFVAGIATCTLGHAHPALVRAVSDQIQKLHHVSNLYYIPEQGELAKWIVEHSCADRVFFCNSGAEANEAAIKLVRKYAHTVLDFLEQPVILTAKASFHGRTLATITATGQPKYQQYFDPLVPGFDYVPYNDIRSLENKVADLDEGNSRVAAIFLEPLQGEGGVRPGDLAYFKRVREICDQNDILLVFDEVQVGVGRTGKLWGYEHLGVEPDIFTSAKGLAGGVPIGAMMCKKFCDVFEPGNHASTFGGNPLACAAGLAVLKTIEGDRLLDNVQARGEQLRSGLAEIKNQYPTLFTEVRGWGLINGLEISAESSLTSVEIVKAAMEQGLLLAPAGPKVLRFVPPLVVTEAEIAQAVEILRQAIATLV
Assay: co-IP; FLAG-affinity coimmunopurification of f.ArgD from soluble proteins of f.argD/ΔargD Synechocystis cells grown under PAT or LAH conditions; eluates on SDS-PAGE, blot probed with antibodies against CphB and the FLAG tag

B1: cyanophycinase (CphB) (enzyme, UniProt P73832 1-271)
chain: MPLSSQPAILIIGGAEDKVHGREILQTFWSRSGGNDAIIGIIPSASREPLLIGERYQTIFSDMGVKELKVLDIRDRAQGDDSGYRLFVEQCTGIFMTGGDQLRLCGLLADTPLMDRIRQRVHNGEISLAGTSAGAAVMGHHMIAGGSSGEWPNRALVDMAVGLGIVPEIVVDQHFHNRNRMARLLSAISTHPELLGLGIDEDTCAMFERDGSVKVIGQGTVSFVDARDMSYTNAALVGANAPLSLHNLRLNILVHGEVYHQVKQRAFPRVT
In the case of B1, the binding is reported as “binds”.

From PMC12661447, “Cyanophycinase is required for heterotrophy in cyanobacteria” (The Journal of Biological Chemistry, 2025)
